Laboratory results: US20250040503A1, “METHOD FOR PRODUCING HAPLOID, AND DOUBLED HAPLOID BETA VULGARIS PLANTS BY MICROSPORE CULTURE” (KWS SAAT SE & Co. KGaA, priority 2021, published 2025)
At least one structure is not confirmed: it was looked up by name or label, or the drawing left a doubt.

Tested on: Beta vulgaris (sugar beet) microspores
Test: Callus induction from isolated sugar beet microspores (microspore culture)
Format: cell-based
Text: The experimental set-up is detailed in the below Examples. In the Figures, each column represents a different genotype. […] Time point, duration and buffer used were always identical for all treatments in the different rows. The different rows thus only differ from each other in the kind of inhibitor used.
Bracteoles are cut off the inflorescence and buds bigger than 1.8 mm are removed. Remaining part is divided into smaller pieces, preferably pieces of 1-1.5 cm. Buds smaller than 1.8 mm contain typically microspores at the tetrad and uninuclear developmental stage, which are the optimal developmental stages for further progressing. However, it should be noted that due to broad variation of different genotypes and donor sources (e.g., monogerm and multigerm), the correlation between the maximum flower bud size and nuclear stages of the microspores needs to be established for each genotype individually. The determination of the nuclear stages is carried out using a fluorescence-based staining method. The method contains fixation of the cells for instances with Ethanol acetic acid and DAPI staining (Kim, Moon-Za, and In-Chang Jang. “Rapid Assessment of Microspore Development Stage in Pepper Using DAPI and Ferric chloride.” Journal of Plant Biotechnology 2.3 (2000): 129-134.). […]

In the case of `C/C=C1\NC(=O)[C@H]2CSSCC/C=C/[C@H](CC(=O)N[C@H](C(C)C)C(=O)N2)OC(=O)[C@H](C(C)C)NC1=O` [Romidepsin, romidepsin], the “callus induction potential in comparison to TSA” value (comparator TSA 5 μM, same time point, duration and buffer) is reported as “effect of TSA was superior” and the callus induction (romidepsin alone 2.5 μM, DR (monogerm), FIG. 5) is reported as “slight positive effect”.
